The filed quantity is “Percent Effect” (%).
How 0% and 100% were set is not recorded. Most values in the screen are low, and negative values occur.
Compounds were drawn at random from those tested, without regard to their results.
Two or more numbers in one place are separate tests of the same structure; such repeats can differ widely.

Mtb glucose medium: 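Whole-cell growth test on Mycobacterium tuberculosis, read after 3 days in glucose-containing 7H9 medium; the read-out is not stated. Compounds at 50 µM. Direction is inferred from retests: higher values go with more growth inhibition. Size under these conditions: about 69,000 compounds, about 760 of them at 50% or above in at least one test.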
Mtb cholesterol medium: 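Whole-cell growth test on Mycobacterium tuberculosis, read after 4 days in a medium based on cholesterol and the lipid DPPC; the read-out is not stated. Concentration: 50 µM. Higher reads as more growth inhibition (inferred: compounds with an IC50 in retests scored well above the rest). Size under these conditions: about 69,000 compounds, about 370 of them at 50% or above in at least one test.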

compound,Mtb glucose medium,Mtb cholesterol medium
CNC(=O)c1cccc(CNC(C)c2cc(Cl)ccc2OC)c1 (configuration not stated),-1.054 and 5.021,-9.94 and -8.874
CC(NC1CCN(CCS(C)(=O)=O)CC1)c1cnn(C(C)C)c1 (configuration not stated),-8.204,-19.13
O=c1cc(CNS(=O)(=O)C2CC2)nc2n1CCCNC2,-36.41 and -4.079,-3.932
CC(C)NC(=O)c1ccc2c(c1)C(c1nc[nH]n1)CN2S(C)(=O)=O (configuration not stated),5.982,2.01
C[C@@H]1CN(CCC(=O)N(C)Cc2ccccc2)C[C@@]1(O)C1CCC1,-17.48 and 1.676,20.94
CCN(C)CC1CCN(C(=O)Nc2ccc(C)cc2)C1 (configuration not stated),-5.702,-4.022
CC1N(CC2CC2)C(=O)COC12CCN(C(=O)c1ccno1)CC2 (configuration not stated),-27.94 and -4.213,-11.65
Cc1cccc(-c2ncc(CNC(C)Cc3ccncc3)cn2)c1 (configuration not stated),-14.15,-3.861
CCOCC1CN(CC2CCC2)Cc2nnn(CC3CC3)c21 (configuration not stated),10.44,-14.33
COc1ccc(CSCC(O)CO)c(Cl)c1 (configuration not stated),24.45,11.35
[H][C@]12CC[C@]([H])(CN(Cc3ccccn3)C1)N(CC(=O)Nc1ccccc1)C2,10.07,24.39
CSCCC(O)C(=O)N1CCCN(Cc2ccc(F)cc2)CC1 (configuration not stated),5.518,8.183
Cc1cc2c(=O)n3c(nc2s1)CCN(C(=O)c1ccnn1C(C)C)CC3,33.6,-5.87
CC(C)OCCC(=O)NS(=O)(=O)N1CCOc2ccccc21,-1.621 and -2.994,6.513
Cn1cc(S(=O)(=O)NCCc2nnc3ccccn23)cn1,-16.83 and -11.5,-1.245
CNS(=O)(=O)c1csc(C(=O)NCc2sccc2C)c1,5.357,7.916
Cc1ccc(S(C)(=O)=O)cc1C(=O)NS(=O)(=O)c1cccs1,-3.52,-6.947
CN(C)C(=O)Cc1ccc(NCc2nccn2C)cc1,1.833,5.633
CC(=O)N1CCC(N2CCOC[C@H]2c2nc(-c3ccc(Cl)s3)c[nH]2)CC1,-3.762 and -17.15,48.04
[H][C@@]12OCCN(S(=O)(=O)C3CC3)[C@@]1([H])CC[C@H]2OCC(C)C,19.3,-18.18
O=C(c1c(F)cccc1Br)N1CCCOCC1,-3.955 and -4.456,-13.54
CN(C)c1nccc(CNC(=O)NC(C)(C)C)n1,13.06,21.92
COc1ccc(C(=O)NCCN(C)C)c(I)c1,4.699 and -1.95,12.72
CCC(Nc1nnnn1-c1ccccc1)C(=O)Nc1ccccc1C (configuration not stated),33.62,0.6512
C[C@@H]1CN(Cc2nc(C(N)=O)no2)CC[C@@]1(O)C1CC1,-2.007 and 2.078,-13.8
COc1ccc2c(ccn2CCC(=O)Nc2n[nH]c(CC(C)C)n2)c1,27.12,32.03
[H][C@@]12CCN(C(=O)c3nnc4n3CCCCC4)C[C@@]([H])(CC1)N2C,6.579,3.804
O=C(Cc1ccc2c(c1)OCCO2)N1CCCC(n2ccnc2)C1 (configuration not stated),-12.42,76.43
O=S(=O)(Cc1ccccc1)CC(O)Cn1cccn1 (configuration not stated),-4.567,-20.2 and -16.73
CN(CC(=O)Nc1cc(C(C)(C)C)n[nH]1)S(C)(=O)=O,-14.98,-20.06
CC(=O)NC1(C(=O)N2CCC(Nc3cccnn3)CC2)CCCCC1,-9.382,-34.33
Cn1cnnc1-c1ccnc(NCc2ccccc2)c1,-9.15,2.541
CN(CC(=O)Nc1cccc(F)c1)Cc1nc(N)nc(N(C)C)n1,-10,-5.35
O=C(c1nc(=O)[nH][nH]1)N1CCCN(CC2CCCCC2)CC1,-7.645,2.304
Cc1ccc(C(=O)N2CCn3cnc(COCC4CC4)c3C2)cn1.O=C(O)C(F)(F)F,-18.03 and -8.191,29.8 and -14.03
CCN(CC)C1CCN(C(=O)c2cc(-n3cccn3)ccc2Cl)CC1,1.67,3.31
CC(C)CN1CCC2(CCN(C(=O)c3ccc(F)cc3)CC2)C1=O,-5.397,6.715
O=C(O)C(F)(F)F.[H][C@@]12COC[C@]1(COCc1cccnc1)CN(C(=O)c1occc1C)C2,-6.678 and 7.868,7.031 and -16.16
CCCn1cc(NC2CCSCC2)cn1,-3.027,11.34
O=C(Cc1ccsc1)N1CCC(c2n[nH]c3nccnc23)CC1,14.14,-3.034
c1ccc2c(c1)CC(Cc1cc(N3CCCC3)cnn1)CCO2 (configuration not stated),15.29,9.209
CCC(CNC(=O)c1nc(=O)[nH][nH]1)Oc1cccc(C(F)(F)F)c1 (configuration not stated),-17.89,22.57
Cl.Cn1nc(C2CCCN(Cc3cc(F)ccc3F)C2)c2nccnc21 (configuration not stated),0.09517,69.98
O=C(O)C(F)(F)F.c1cncc(CN2Cc3nccn3CC(Cn3cncn3)C2)c1 (configuration not stated),-32.42,-21.73

For reference, 3 entries once more:

compound,Mtb glucose medium,Mtb cholesterol medium
CC(C)CN1CCC2(CCN(C(=O)c3ccc(F)cc3)CC2)C1=O,-5.397,6.715
Cn1cc(S(=O)(=O)NCCc2nnc3ccccn23)cn1,-16.83 and -11.5,-1.245
O=S(=O)(Cc1ccccc1)CC(O)Cn1cccn1 (configuration not stated),-4.567,-20.2 and -16.73

Measurements from “University of Dundee, Small-Polar-MMV Screening Library” (2021), ChEMBL document CHEMBL3988442.